# In PubChem BioAssay AID1347076 (National Center for Advancing Translational Sciences (NCATS), 2019):
# Hit rate of the full screen: of about 400,000 compounds, about 13,000 (3.2%) were called active. The shares of active, inactive and inconclusive entries below differ from those in the screen. Calls come from the whole dose curve; as a rule, active = well fitted cell-killing curve with a large enough effect; inconclusive = small, poorly fitted or top-dose-only effect, or effect the other way; inactive = flat fitted curve, though single readings scatter. A potency beside an inconclusive call is a rough fit, not a confirmed value.
# Test: qHTS assay for MDR1-selective chemotherapeutics: Primary screen using the drug-selected MDR subline cells KB-V1; note: nearly all actives have a fitted effect of over 60% in size
# Settings: KB-V1 MDR cells viability, CellTiter-Glo, 72 h; activity change, negative = cytotoxicity: at 46.1 µM (top of the series)
# Procedure, shortened: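 Readout: CellTiter-Glo luminescence, 10 min after addition. Cells: KB-V1 MDR subline, 72 h at 37 degrees C with compound. Analysis: corrected, normalized data fitted to concentration-effect curves.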
# % is set by controls: 0 for no effect and ±100 for the full control effect; potency is the fitted concentration of half-maximal effect.
SMILES,Potency,"activity change, negative = cytotoxicity"
CCOC(=O)CC(NC(=O)Cn1nnc(-c2ccc(C(F)(F)F)cc2)n1)c1ccccc1Cl (configuration not stated),"inconclusive: 8.2 µM [cytotoxic, partial curve]",
CN1C(=O)CSc2ccc(NC(=O)N3CCc4ccccc43)cc21,active: 16.4 µM,
CN(C)c1ccc(C(CNC(=O)Cc2ccc(Cl)cc2)N2CCOCC2)cc1 (configuration not stated),,inconclusive: 30.5%
COc1ccc(CN(Cc2ccc(C(=O)O)cc2)C(=S)Nc2ccccc2Cl)cc1OC,"inconclusive: 29.1 µM [rising, partial curve, poor fit]",
COc1ccc(OC)c(/C=C2\SC(=S)N(C(C(=O)O)c3ccccc3)C2=O)c1 (configuration not stated),inactive,
COc1ccc(-c2nc3ccc(C)cn3c2CC2CCCCC2)cc1OC,inactive,
Cc1cc(OCC(=O)Nc2cnn(CCCC(=O)O)c2)ccc1Cl,"inconclusive: 14.6 µM [rising, single point]",
CC(=O)Nc1ccc(S(=O)(=O)Nc2ccc(F)c([N+](=O)[O-])c2)cc1,inactive,
CC1CCN(C(=O)c2ccc(N(C)S(C)(=O)=O)cc2)CC1,"inconclusive: 29.1 µM [cytotoxic, partial curve, poor fit]",
O=C(Nc1ncc(Br)s1)C1CCCN1S(=O)(=O)c1cccc2cccnc12 (configuration not stated),"inconclusive: 25.9 µM [cytotoxic, single point]",
CC(C)CNc1ncnc2c1ncn2[C@H]1CN(Cc2ccc(C(=O)O)cc2)C[C@@H](CO)O1,inactive,
Cn1nc(C(F)(F)F)c(C(=O)Nc2ccc(F)cc2F)c1Sc1cccc(Cl)c1,active: 16.4 µM,
COc1ccc(C2CC(c3ccccc3)=NN2C(=O)COC(=O)c2cccnc2Cl)cc1 (configuration not stated),"inconclusive: 20.6 µM [cytotoxic, single point]",
Cc1cc(N2CCC(C)CC2)c(F)cc1[N+](=O)[O-],inactive,
O=c1oc(/C=C/c2ccc([N+](=O)[O-])s2)nc2ccccc12,inactive,
Cc1ccc(C(CC(=O)NCC2(c3ccccc3)CCCC2)c2ccccc2)c(O)c1 (configuration not stated),"inconclusive: 23.1 µM [cytotoxic, partial curve, poor fit]",
O=C(/C=C/c1ccco1)OCC1CCCN2CCCCC12 (configuration not stated),inactive,
COc1ccc(N2CCN(C(=O)CCS(=O)(=O)c3ccc4c(c3)NC(=O)CO4)CC2)cc1,"inconclusive: 29.1 µM [rising, single point]",
Cc1cc(C#N)c2ccccc2n1,"inconclusive: 29.1 µM [rising, single point]",
O=C(NNc1nc(-c2ccccc2)cs1)c1ccco1,inactive,
COc1ccc(CNCC(O)(c2ccc(Cl)cc2)c2ccc(Cl)cc2)cc1OC,active: 7.31 µM,
COc1cncc(C#Cc2ccccn2)c1,inactive,
COc1ccccc1N1C(=O)CC(Sc2ccccc2N)C1=O (configuration not stated),,inconclusive: -3.91%
COc1ccc(C(c2sc3nc(C)nn3c2O)N2CCC(C(N)=O)CC2)cc1OC (configuration not stated),"inconclusive: 20.6 µM [rising, single point]",

SMILES,Potency,"activity change, negative = cytotoxicity"
Cc1ccc(CNC(C)c2ccccc2)s1 (configuration not stated),inactive,
C/C(=N\NC(=O)c1cccc(S(=O)(=O)N2CCCC2)c1)c1cccs1,"inconclusive: 14.6 µM [cytotoxic, single point]",
CC(C)(C)OC(=O)N1CCC(c2c(C(=O)Nc3ccc4c(c3)OCCO4)cnn2-c2ccc(F)cc2)CC1,"inconclusive: 16.4 µM [cytotoxic, single point]",
CC(C)Cn1c(-c2csc3c2CCCC3)n[nH]c1=S,active: 20.6 µM,
Clc1ccc(Cc2ccc(Cl)nn2)c(Cl)c1,"inconclusive: 25.9 µM [cytotoxic, single point]",
CCN(CC)S(=O)(=O)c1ccc(OCC(=O)NCc2ccccc2)cc1,"inconclusive: 16.4 µM [cytotoxic, partial curve]",
CCN(CC)S(=O)(=O)c1ccc2[nH]c(=O)cc(C(=O)Nc3cccc(C(C)=O)c3)c2c1,"inconclusive: 20.6 µM [rising, single point]",
O=C(CCSc1nnc(-c2ccncc2)o1)Nc1cccc(Cl)c1,"inconclusive: 29.1 µM [cytotoxic, single point]",
COc1cccc2cc(NC(=O)C3CCCCC3)c(=O)oc12,"inconclusive: 5.8 µM [cytotoxic, full curve]",
COc1cccc(NC(=O)C(C)Sc2nnc(C3CC3)n2C2CC2)c1 (configuration not stated),inactive,
O=C(CN1CCN(Cc2ccc3c(c2)OCO3)CC1)Nc1cc(S(=O)(=O)N2CCCC2)ccc1Cl,"inconclusive: 4.11 µM [cytotoxic, full curve]",
CC(C)(C)c1ccc(C(=O)Nc2nnc(C3=COCCO3)o2)cc1,"inconclusive: 6.51 µM [cytotoxic, partial curve]",
CCCC1=NCCn2cccc21,"inconclusive: 20.6 µM [rising, single point]",
O=C(Cc1ccccc1)N/N=C/c1ccc([N+](=O)[O-])s1,active: 14.6 µM,
CC1(C)S/C(=N/N=C/c2ccco2)NC1=O,"inconclusive: 3.66 µM [cytotoxic, partial curve, poor fit]",
CN(C)S(=O)(=O)c1cccc(NC(=O)c2cccc(N3C(=O)CCC3=O)c2)c1,"inconclusive: 20.6 µM [rising, single point]",
Cc1ccc(S(=O)(=O)Nc2nccs2)cc1[N+](=O)[O-],"inconclusive: 29.1 µM [rising, single point]",
O=C(CNC(=O)c1ccco1)NCc1ccc2c(c1)OCO2,"inconclusive: 23.1 µM [rising, single point]",
Oc1ccc(Cl)cc1-c1cc(-c2ccccc2Cl)[nH]n1,"inconclusive: 11.6 µM [cytotoxic, partial curve]",
Cn1nc(C(C)(C)C)cc1C(=O)N1CCCCC1c1cc(C(=O)Nc2ccc(F)c(Cl)c2)no1 (configuration not stated),"inconclusive: 3.26 µM [cytotoxic, full curve]",
Cc1ccccc1-n1ncc2c(SCC(=O)N3c4ccccc4CC3C)ncnc21 (configuration not stated),active: 9.2 µM,
CN(C(=O)CSc1ncn[nH]1)C1(C#N)CCCCC1,,inconclusive: -0.418%
COC(=O)[C@@]12C[C@@H](CC(=O)NCc3cccc(C(F)(F)F)c3)C(=O)N(Cc3cccc4ccccc34)C1=CCC(C)(C)C2,"inconclusive: 13 µM [cytotoxic, single point]",

# One compound at a time (already shown).
# `COc1cccc(NC(=O)C(C)Sc2nnc(C3CC3)n2C2CC2)c1` (configuration not stated) as listed: Potency: inactive
# `CCCC1=NCCn2cccc21` as listed: Potency: inconclusive: 20.6 µM [rising, single point]
# `CC(C)(C)c1ccc(C(=O)Nc2nnc(C3=COCCO3)o2)cc1` as listed: Potency: inconclusive: 6.51 µM [cytotoxic, partial curve]
